According to patent US20210315937A1, “METHODS OF TREATING INFLAMMATION” (University of South Florida, priority 2020, published 2021):
At least one compound was matched to its structure with a doubt left.

Key:
[1] = system: RNA viruses, such as HIV, rotavirus; conditions: Chojkier 2012, Guerrero 2012, Khattab 2010, Omeragic 2019; cited from earlier work
[2] = system: LPS stimulated HEK293 cells; assay: RNA expression of inflammatory genes in LPS stimulated HEK293 cells; type: cell-based; conditions: HEK293 cells stimulated with LPS (100 ng/ml) for 24 hrs, then PG (20 mM) for 24 hrs

For `CCc1ccc(CCOc2ccc(CC3SC(=O)NC3=O)cc2)nc1` (stereo not shown) [PG, pioglitazone], the “protection against RNA viruses” value [1] is given as “provides protection against RNA viruses”, the “CCL20 expression (relative fold change in RNA expression)” value [2] is given as “reduced expression” and the “IL-6 expression (relative fold change in RNA expression)” value [2] is given as “reduced expression”. The “IL-lb expression (relative fold change in RNA expression)” value [2] was “reduced expression”, the “NLRP3 expression (relative fold change in RNA expression)” value [2] was “reduced expression” and the “PPARg expression (relative fold change in RNA expression)” value [2] was “upregulated”. The “TNFa expression (relative fold change in RNA expression)” value [2] was “reduced expression”.
